From patent US8835375B2 (Applied Nanosystems B.V., priority 2006, dated 2014)
Not every detail of the peptide structures is certain; ends, links or a residue may be inferred.

What was measured:
[1] = system: aortic rings of male Sprague Dawley rats; experiment: vasodilation of phenylephrine-precontracted aortic rings; type: cell-based; conditions: PE 10^−7.5 M, cumulative peptide 10^−10-10^−6 M
CD1 mice = experiment: effect of intravenous bolus injection on mean arterial blood pressure (MAP) in the anesthetized mouse; type: in vivo
trachea smooth muscle = experiment: Ang(1-8)-induced contraction of trachea rings; type: cell-based, guinea pigs; conditions: for reduction of the maximal contraction of trachea smooth muscle induced by Ang(1-8): peptide added 20 minutes prior to Ang(1-8)
[2] = peptide added 20 minutes prior to cumulative doses of Ang(1-8)

In the case of `CC[C@H](C)[C@H](NC(=O)[C@H](Cc1ccc(O)cc1)NC(=O)[C@@H](NC(=O)[C@H](CCCNC(=N)N)NC(=O)[C@@H](N)CC(=O)O)C(C)C)C(=O)N[C@@H](Cc1c[nH]cn1)C(=O)N1CCC[C@H]1C(=O)O` [Ang(1-7), DRVYIHP, reference compound], the “vasodilation of phenylephrine-contracted aorta” value [1] is reported as “cause vasodilation”, the MAP recovery time (CD1 mice; anesthetized CD1 mouse, after i.v. bolus injection) is reported as 2 mm and the “effect on MAP” value (CD1 mice; anesthetized mouse, intravenous bolus injection of 0.06 μmol) is reported as “temporary reduction of MAP”. The “reduction of the maximal contraction of trachea smooth muscle induced by Ang(1-8)” value (trachea smooth muscle) was 21% and the “mean contraction [%]” value (trachea smooth muscle; [2]) was 19.04%.
With `CC[C@H](C)[C@H](NC(=O)[C@H](Cc1ccc(O)cc1)NC(=O)[C@@H](NC(=O)[C@H](CCCNC(=N)N)NC(=O)[C@@H](N)CC(=O)O)C(C)C)C(=O)N[C@@H](Cc1cnc[nH]1)C(=O)N1CCC[C@H]1C(=O)N[C@@H](Cc1ccccc1)C(=O)O` [Ang(1-8), Asp-Arg-Val-Tyr-Ile-His-Pro-Phe, reference compound] the “mean contraction [%]” value (trachea smooth muscle; natural Ang(1-8) alone, cumulative 10^−10 up to 10^−6 M) was 24.21%.
For `CC[C@H](C)[C@@H]1NC(=O)[C@H](NC(=O)[C@@H](NC(=O)[C@H](CCCNC(=N)N)NC(=O)[C@@H](N)CC(=O)O)C(C)C)CSC[C@@H](C(=O)O)NC(=O)[C@H](Cc2c[nH]cn2)NC1=O` [[Cyc^4-7]Ang(1-7), Asp-Arg-Val-Ala-Ile-His-Ala], the “vasodilating effect in amplitude as compared to natural Ang(1-7)” value [1] was “about two-fold”, the “vasodilation of phenylephrine-contracted aorta” value [1] was “cause vasodilation” and the “reduction of the maximal contraction of trachea smooth muscle induced by Ang(1-8)” value (trachea smooth muscle) was 24%. For the same compound, the “mean contraction [%]” value (trachea smooth muscle; [2]) was 18.32%.
